Assay results published in publication PMC10792936.
These are yes or no findings as the source states them, for the method shown. Binding seen in cells or lysates may run through a third protein. Some results given as binding are weak or reduced against the parent protein; the word gives no strength.

Chains of the proteins cited; added tags and fusions are not shown.
UniProt P05412: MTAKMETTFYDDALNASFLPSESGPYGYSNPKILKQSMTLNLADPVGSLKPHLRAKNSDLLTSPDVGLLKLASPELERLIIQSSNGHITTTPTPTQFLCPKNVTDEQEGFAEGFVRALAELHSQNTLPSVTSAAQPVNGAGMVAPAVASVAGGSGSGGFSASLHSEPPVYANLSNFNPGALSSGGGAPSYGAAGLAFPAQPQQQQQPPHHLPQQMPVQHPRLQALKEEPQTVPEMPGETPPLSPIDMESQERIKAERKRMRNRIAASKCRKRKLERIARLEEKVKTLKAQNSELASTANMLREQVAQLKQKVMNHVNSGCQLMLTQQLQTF
UniProt P45974: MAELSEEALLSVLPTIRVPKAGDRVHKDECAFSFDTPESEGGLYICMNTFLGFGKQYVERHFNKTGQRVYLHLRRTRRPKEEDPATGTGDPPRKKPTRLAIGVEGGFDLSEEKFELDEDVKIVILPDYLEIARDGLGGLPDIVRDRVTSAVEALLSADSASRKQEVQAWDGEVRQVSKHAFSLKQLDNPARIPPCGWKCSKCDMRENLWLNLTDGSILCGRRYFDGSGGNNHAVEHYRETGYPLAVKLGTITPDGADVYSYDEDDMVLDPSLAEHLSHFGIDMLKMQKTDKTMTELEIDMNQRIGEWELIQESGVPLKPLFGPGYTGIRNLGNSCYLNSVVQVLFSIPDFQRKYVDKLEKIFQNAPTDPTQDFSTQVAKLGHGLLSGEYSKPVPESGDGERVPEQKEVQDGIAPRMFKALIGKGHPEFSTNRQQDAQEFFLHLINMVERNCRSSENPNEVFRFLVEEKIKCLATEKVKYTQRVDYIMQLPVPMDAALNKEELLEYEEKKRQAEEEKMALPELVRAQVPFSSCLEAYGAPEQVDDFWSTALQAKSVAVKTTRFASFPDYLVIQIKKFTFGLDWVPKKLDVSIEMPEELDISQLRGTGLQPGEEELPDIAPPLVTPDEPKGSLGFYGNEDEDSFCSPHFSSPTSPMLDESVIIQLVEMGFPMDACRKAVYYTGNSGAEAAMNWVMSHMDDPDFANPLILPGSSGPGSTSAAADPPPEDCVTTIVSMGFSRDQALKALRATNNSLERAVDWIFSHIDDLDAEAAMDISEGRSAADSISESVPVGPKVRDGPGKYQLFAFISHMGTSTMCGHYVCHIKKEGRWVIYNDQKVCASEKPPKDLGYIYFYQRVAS

Molecular target: c-Jun (human (endogenous in T24)) (UniProt P05412)
Test: co-IP; endogenous proteins in T24 cells; NP-40 lysis buffer (20 mM Tris-HCl pH 7.4, 150 mM NaCl, 1% NP-40), antibody and rProtein A/G Magarose beads overnight at 4 °C; which protein was precipitated not given

binding: binds
Substance: USP5 (from UniProt P45974 1-858) (enzyme)
